Experimental data: PubChem BioAssay AID540336 (Broad Institute, 2011)
Screen size: about 330,000 compounds; about 520 (0.16%) were called active. Inconclusive means that the source gave no clear call. Such entries were picked first, then a sample of the others.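 The calls were made as follows: active = inhibition of at least 50% in every replicate; inconclusive = best replicate reaches 50% inhibition but some replicates fall short; inactive = the rest.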 A structure can be active in one record and inactive in another.

By UniProt entry, the sequences of proteins in these tests, tags left out.
UniProt Q5AAJ8, whole entry, looked up: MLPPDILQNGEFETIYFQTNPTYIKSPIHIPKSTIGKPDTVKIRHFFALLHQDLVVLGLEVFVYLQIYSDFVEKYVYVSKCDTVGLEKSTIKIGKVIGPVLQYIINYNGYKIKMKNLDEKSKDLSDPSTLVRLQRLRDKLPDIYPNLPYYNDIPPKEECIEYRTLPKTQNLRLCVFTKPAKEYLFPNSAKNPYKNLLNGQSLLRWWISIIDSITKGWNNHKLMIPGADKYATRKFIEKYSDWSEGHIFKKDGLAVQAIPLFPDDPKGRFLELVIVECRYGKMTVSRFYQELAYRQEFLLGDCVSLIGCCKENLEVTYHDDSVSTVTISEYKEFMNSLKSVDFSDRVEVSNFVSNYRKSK

Each compound was assayed against Histone acetyltransferase RTT109 (Candida albicans (strain SC5314 / ATCC MYA-2876)) (UniProt Q5AAJ8) (assay: Rtt109-Vps75 histone acetyltransferase blockade – biochemical, ThioGlo CoA-SH fluorescence, plate reader, primary screen (AID 540336)). Settings: purified Rtt109/Vps75, ThioGlo CoA-SH fluorescence, 4 h; at 34.9 µM; active compounds read high.
With C#CCOCCOCCOCCNc1nc(N2CCN(C(=O)C([C@@H](C)CC)n3cc(C(N)Cc4ccc(O)cc4)nn3)CC2)nc(N2CCN(C(=O)[C@H](CCC(=O)O)n3cc(C(N)CO)nn3)CC2)n1 (stereo not given in full) the inhibition was inconclusive: 14.7%.
CCC(/C=C1\Sc2ccc(OC)cc2N1CCO)=C\c1sc2ccc(OC)cc2[n+]1CCO was tested, and the inhibition was active: 114%.
In the case of CCOC(=O)c1c(C)[nH]c(C)c1C(=O)CSc1nnnn1-c1ccccc1, the inhibition is reported as inconclusive: 25.5%.
Cc1cc(N2CCN(C)CC2)nc2ccc(NC(=S)NCCN3CCc4ccccc4C3)cc12 was tested, and the inhibition was inconclusive: 42.8%.
In the case of COc1cc(CNc2ncn[nH]2)ccc1OCc1cccc(C)c1, the inhibition is reported as inconclusive: 76.3%.
Nc1ccccc1-c1nnc(SCc2ccccc2Cl)[nH]c1=O was tested, and the inhibition was inactive: 15.1%.
With CCCOC(=O)c1c(-c2ccc(C)cc2C)csc1NC(=O)C1C2CCC(O2)C1C(=O)O (stereo not given) the inhibition was inconclusive: 35.2%.
For COc1ccc(-n2cnc3scc(-c4ccc(OC)c(OC)c4)c3c2=O)cc1, the inhibition was active: 62.5%.
In the case of O=[N+]([O-])c1ccc(/C=N/NC(=S)Nc2ccccc2F)o1, the inhibition is reported as inactive: 20.2%.
For Cc1ccc(C)c(NC(=O)CSc2nncn2C)c1, the inhibition was inconclusive: 12.6%.
COc1ccc(NC(=O)CNS(=O)(=O)c2cccs2)c(OC)c1 was tested, and the inhibition was active: 62.6%.
For C#CCOCCOCCOCCNc1nc(N2CCN(C(=O)CCCCCCCCCCNC(=O)[C@H](CCCCN)n3cc(C[C@@H](C)CC)nn3)CC2)nc(N2CCN(C(=O)CCCCCCCCCCNC(=O)[C@@H]([C@H](C)O)n3cc(C)nn3)CC2)n1, the inhibition was inconclusive: 60%.
With CC(Oc1cccc(Cl)c1)C(=O)Nc1ccc(S(=O)(=O)NC2=NCCCCC2)cc1 (stereo not given) the inhibition was inconclusive: 32.8%.
In the case of CCOc1ccc(CCNC(=O)CN(C)S(=O)(=O)c2cccc3nsnc23)cc1OCC, the inhibition is reported as inactive: 1.62%.
In the case of Cc1ccn2cc(-c3ccc(NC(=O)c4ccco4)cc3)nc2c1, the inhibition is reported as inconclusive: 32.2%.
CCOc1ccc(/C=C2\SC(=S)NC2=O)cc1OC was tested, and the inhibition was inactive: -7.41%.
For Cc1ccccc1OCc1nnc(SCC(=O)Nc2ccc(N3CCOCC3)cc2)n1C, the inhibition was inconclusive: 22.3%.
With O=c1c(-c2ccccc2)nnc2sc(COc3ccc(Br)cc3)nn12 the inhibition was inconclusive: 25.9%.
O=S(=O)(Oc1ccccc1-c1ccccc1)c1ccccc1 was tested, and the inhibition was inactive: 4.35%.
With COc1ccccc1NC(c1cccnc1)c1ccc2cccnc2c1O (stereo not given) the inhibition was inconclusive: 36%.
COc1ccc(CN(C)CC(O)COc2ccc(C(=O)c3ccccc3)cc2)c(OC)c1OC (stereo not given) was tested, and the inhibition was inconclusive: 25.3%.
CCOC(=O)c1ccc(CC(=O)c2ccc(O)c(O)c2O)o1 was tested, and the inhibition was inconclusive: 29.1%.
With O=C(Cn1cnc2ccccc2c1=O)N1CCN(S(=O)(=O)c2ccc(F)cc2)CC1 the inhibition was inconclusive: 21%.
In the case of Cc1ccc(N2C(=O)C3Sc4[nH]c(=O)sc4C(c4ccccc4)C3C2=O)cc1 (stereo not given), the inhibition is reported as inconclusive: 26.2%.
CCCn1cc(S(=O)(=O)c2ccc(C)cc2)c(=O)c2cc(OCC)ccc21 was tested, and the inhibition was inconclusive: 47.6%.
In the case of CC(=O)c1c(N2CCN(c3ccc(F)cc3)CC2)nc(=S)n(-c2ccccc2)c1C, the inhibition is reported as inconclusive: 46.6%.
In the case of C/C(=C\C(=O)O)C(=O)Nc1nccs1, the inhibition is reported as inactive: -20.7%.
In the case of N#Cc1ccccc1CN1C(=O)S/C(=C/c2cccn2-c2ccc(C(=O)O)cc2)C1=O, the inhibition is reported as inactive: 14.1%.
CC(C)(O)C#Cc1ccc(C(=O)N2CCN(c3ccccc3)CC2)cc1 was tested, and the inhibition was inconclusive: 25.3%.
O=C(Nc1ccc(Cl)cc1)c1csc(-c2ccccc2)n1 was tested, and the inhibition was inactive: 2.44%.
O=C(CC1SC(=Nc2ccccc2)N(CCO)C1=O)Nc1ccccc1 (stereo not given) was tested, and the inhibition was inconclusive: 30.4%.
In the case of COc1ccc(CSc2nnc(C)s2)cc1F, the inhibition is reported as inactive: 4.94%.
CC(NCC(O)COC1CCC(C(C)(C)C)CC1)c1ccccc1 (stereo not given) was tested, and the inhibition was active: 60%.
With COc1ccc(C(=O)Nc2cc(OC)c(NC(=O)c3ccco3)cc2OC)cc1 the inhibition was active: 57.3%.
In the case of CCOc1ccc(C(=O)NC(=S)Nc2cccc(NC(=O)c3ccco3)c2)cc1[N+](=O)[O-], the inhibition is reported as inconclusive: 38.4%.
For Cn1c(C(=O)N2CCN(Cc3ccc4c(c3)OCO4)CC2)cc2sccc21, the inhibition was inconclusive: 29.9%.
In the case of O=C1/C(=C/c2cccs2)SC(=S)N1c1ccccc1, the inhibition is reported as inactive: -5.8%.
COc1ccc(C2=CSC3=NCCN23)cc1OC was tested, and the inhibition was inactive: 0.709%.
In the case of O=C(CCc1nnc(C2(c3ccc(Cl)cc3)CCC2)o1)NCCCn1cccn1, the inhibition is reported as active: 50.4%.
With COc1cc(OC)c(C2CC(=O)N3CN(c4ccc(C)cc4)CSC3=C2C#N)cc1OC (stereo not given) the inhibition was inconclusive: 48%.
COc1cccc(NC(=O)c2ccc(CN3CCOCC3)cc2)c1 was tested, and the inhibition was inactive: -4.65%.
For CN(C(=O)CC1C(=O)NCCN1CC(c1ccccc1)c1ccccc1)C(C1CC1)C1CC1 (stereo not given), the inhibition was inconclusive: 35.4%.
O=C(COC(=O)c1cnccn1)c1ccc([N+](=O)[O-])cc1 was tested, and the inhibition was active: 137%.
For Cc1ccc(C)c(N2CCN(C(=O)CN3C(=O)c4ccccc4C3=O)CC2)c1, the inhibition was inactive: -3.05%.
In the case of Cc1cccc(C(C)C)c1NC(=O)c1c(-c2ccccc2)noc1C, the inhibition is reported as inactive: -2.56%.
In the case of COc1ccc(S(=O)(=O)Nc2ccc3c(c2)C(=O)N([C@H](C)CO)C[C@H](C)[C@@H](CN(C)C(=O)Nc2ccc(C(F)(F)F)cc2)O3)cc1, the inhibition is reported as inconclusive: 15.5%.
With C(C#CCCCCCCCCC[n+]1ccccc1)#CCCCCCCCCC[n+]1ccccc1 the inhibition was inconclusive: 47.2%.
In the case of N#C/C(=C\c1c(Cl)cccc1Cl)c1nn(-c2ccccc2)c(-n2cccc2)c1C#N, the inhibition is reported as active: 56.1%.
COc1ccccc1NC(=O)CSC1=NCCN1 was tested, and the inhibition was inconclusive: 43.4%.
O=C(NCCCn1ccnc1)c1ccc(Cl)c(S(=O)(=O)N2CCOCC2)c1 was tested, and the inhibition was inconclusive: 33.8%.
In the case of CC(C)(C)OC(=O)N1CCC(C(=O)Nc2cccc(C(=O)N3CCCCC3)c2)CC1, the inhibition is reported as inactive: -0.969%.
COc1ccc(NC(=O)CSc2nc3c(c(-c4cccs4)c2C#N)CN(C)CC3)cc1OC was tested, and the inhibition was inconclusive: 34.6%.
For C#CCOCCOCCOCCNc1nc(N2CCN(C(=O)CCCCCCCCCCNC(=O)Cn3cc(CCCCCN)nn3)CC2)nc(N2CCN(C(=O)CCCCCCCCCCNC(=O)[C@@H]([C@H](C)O)n3cc(C)nn3)CC2)n1, the inhibition was inconclusive: 49.6%.
For CCOc1cc(CNn2cnnc2)cc(Cl)c1OCC(=O)NC(C)(C)C, the inhibition was inconclusive: 23.8%.
In the case of CCOC(=S)SCC(=O)Nc1nccs1, the inhibition is reported as inconclusive: 47.3%.
For Cc1ccc(C)c(N(C(=O)c2nsc(Cl)c2Cl)C(C(=O)NC2CCCC2)c2ccc(O)cc2)c1 (stereo not given), the inhibition was inconclusive: 29.9%.
In the case of C1CCC(C(CC2CCCCN2)C2CCCCC2)CC1 (stereo not given), the inhibition is reported as active: 77.6%.
With COc1ccc(/C=N/NC(=O)CSc2ccccc2)cc1OC the inhibition was inconclusive: 40%.
For CCCc1cc(NC(=O)COC(=O)c2nccnc2N)n(-c2ccccc2)n1, the inhibition was inactive: -31.8%.
Cc1cc(C)c2c(CN3CCN(C/C=C/c4ccccc4)CC3)cc(=O)oc2c1 was tested, and the inhibition was inconclusive: 36.2%.
With COc1cc(C=O)ccc1OC(=O)c1ccc(C(C)C)cc1 the inhibition was inconclusive: 29.3%.
With COc1ccc(NC(=S)Nc2ccc3nsnc3c2)cc1 the inhibition was active: 54.2%.
In the case of CN1C(=O)NC(c2ccccc2)C2=C1CN(c1cccc(C(F)(F)F)c1)C2=O (stereo not given), the inhibition is reported as inconclusive: 35.3%.
In the case of S=c1[nH]nc(Cc2c[nH]c3ccccc23)o1, the inhibition is reported as inconclusive: 25.3%.
In the case of CCOC(=O)C1=NN(c2cccc(C)c2)C2(S1)SC(C(C)=O)=C(C)N2c1ccccc1 (stereo not given), the inhibition is reported as inactive: -2.56%.
For C=CCN1C(=O)C2C3CC(=O)C(c4ccccc43)C2C1=O (stereo not given), the inhibition was inconclusive: 24.5%.
With COc1ccc(NC(=O)CSC2CC(=O)N(c3ccc4c(c3)OCCO4)C2=O)cc1 (stereo not given) the inhibition was inconclusive: 45.4%.
With Cc1ccc2sc(N(CCCN(C)C)C(=O)c3ccc(S(=O)(=O)N4CCCCCC4)cc3)nc2c1C the inhibition was inconclusive: 46.6%.
For COC(=O)c1nnn(-c2nonc2N)c1CN1CCc2ccccc21, the inhibition was inactive: 22.4%.
COc1cc2c(cc1OC)/C(=C/c1ccc(Br)cc1)C(=O)OC2 was tested, and the inhibition was inconclusive: 32.8%.
COc1ccc(NC(=O)CN2CCC(C)CC2)cc1 was tested, and the inhibition was inconclusive: 40.4%.
With Cc1ccc(C(=O)N/C(=C/c2ccc(Cl)cc2)C(=O)N2CCOCC2)cc1 the inhibition was inconclusive: 41%.
For NC(=O)c1ccc(N2CCN(S(=O)(=O)c3ccccc3)CC2)c([N+](=O)[O-])c1, the inhibition was inactive: -1.02%.
In the case of COc1ccc2c(c1)-c1nc(/N=C/c3c(O)ccc4ccccc34)sc1CC2, the inhibition is reported as inconclusive: 26.5%.
O=c1[nH]c(NC2CCCCC2)nnc1Cc1ccccc1 was tested, and the inhibition was inconclusive: 40%.
With Cc1cc([N+](=O)[O-])ccc1NC(=O)CCC(=O)N1CCCCCC1 the inhibition was inactive: 12.6%.
With CCCC(=O)N1c2ccccc2C(N(C(C)=O)c2ccccc2)CC1C (stereo not given) the inhibition was inconclusive: 26.9%.
In the case of CCC1(CC)NC(=O)N(CC(=O)N2CCN(S(=O)(=O)c3cccc(F)c3)CC2)C1=O, the inhibition is reported as inconclusive: 46.2%.
Nc1nnc2c(n1)CCCC2 was tested, and the inhibition was inconclusive: 34%.
With COc1ccc(Cl)cc1NC(=O)CN(C)C(=O)CN1C(=O)NC(C)(c2ccc3ccccc3c2)C1=O (stereo not given) the inhibition was inconclusive: 20.2%.
For Cc1nnc(SC2CC(=O)N(c3ccccc3)C2=O)s1 (stereo not given), the inhibition was active: 99.6%.
With N#CCCN1CCN(C2=NC(=O)/C(=C\c3cccs3)S2)CC1 the inhibition was inconclusive: 41.9%.
In the case of O=C(CCN1Cc2ccccc2C1)c1ccc2c(c1)OCCO2, the inhibition is reported as active: 100%.
In the case of CCCCCC1CC(CC(=O)O)C(=O)O1 (stereo not given), the inhibition is reported as inactive: -13.9%.
In the case of CCOc1cccc2sc(N(CCN(C)C)C(=O)c3ccc4ccccc4c3)nc12, the inhibition is reported as inconclusive: 42.2%.
